This assay in a line: qHTS Assay for Lipid Storage Modulators in Drosophila S3 Cells.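 As to cell number change: cells counted by Cell Tracker Red CMTPX staining in the red channel.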 The note with it: BODIPY lipid droplet fluorescence, 18-24 h; for cell number change: measured here: cell count max response, cells fed with added oleic acid. An outline of the steps:
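Drosophila S3 cells got compounds at several concentrations plus oleic acid (400 uM solution). Laser-scanning cytometry with 488 nm excitation read lipid droplets at 500-530 nm and cells at 575-640 nm. Percent activity was relative to 20 uM Triacsin C.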
(In general: Quantitative high-throughput screening tests each substance at several concentrations.)

Setting [1] is: measured here: cell number channel AC50, cells fed with added oleic acid.
[2] abbreviates: measured here: lipid fluorescence (Fed channel) AC50, cells fed with added oleic acid.

Some of the results follow. Shown are side measurements of this screen, not its main read-out; they come without a call. Most of these compounds were active or inconclusive in the main read-out, so they are no random draw. The note in brackets gives the kind of curve behind each potency; many fits are weak.

`O=C(NCCCO)c1ccc2[nH]c3c(c2c1)CCCC3`: the AC50 is 1.84 µM [rising, partial curve] under setting [1] and 1.3 µM [rising, partial curve] under setting [2].
As for `O=C(CCNC(=O)c1ccco1)NCc1ccccc1`, the cell number change is -25.5%. Also, under setting [1], the AC50 is 2.59 µM [falling, single point]. Further, under setting [2], the AC50 was 5.17 µM [falling, single point].
In the case of `COc1ccc2cc(C(=O)C3CCCN(Cc4cnc(N5CCOCC5)s4)C3)ccc2c1` (centres undefined), the cell number change was -7.16%. In addition, under setting [2], the AC50 was 0.00461 µM [falling, full curve, poor fit].
In the case of `CCN(CC)N=Nc1ccc(C(=O)O)cc1`, the AC50 was 0.00461 µM [falling, full curve, poor fit] under setting [1] and 3.26 µM [falling, partial curve, poor fit] under setting [2].
For `CN(C)c1cccc(C(=O)OCC(=O)NC2CCCC2)c1`, under setting [1], the AC50 was 6.51 µM [rising, single point].
Regarding `CCOC(=O)c1ccn(CSc2c(F)c(F)cc(F)c2F)n1`, the cell number change was -2.86%.
Consider `NNc1nc(Nc2ccc([N+](=O)[O-])cc2)nc(N2CCCCCC2)n1`, for which the cell number change is -26.1%. Under setting [2], the AC50 was 29.1 µM [rising, partial curve].
On to `CN(C)S(=O)(=O)c1ccc(Cl)c(NC(=O)CN2CCCCCC2)c1`, for which the cell number change was -19.7%. Besides, the AC50 under setting [2] is 3.66 µM [falling, full curve].
For `CN(C)CCN=Cc1c(O)n(Cc2ccccc2)c(=O)c2ccccc12`, the cell number change is 26.4%. Further, the concentration at half-maximal activity (AC50) under setting [2] was 0.058 µM [falling, full curve, poor fit].
As for `CCc1ccc(N(C(=O)CNC(=O)c2ccco2)C(C(=O)NC2CCCC2)c2cccnc2)cc1` (centres undefined), the cell number change came out at 2.5%. Under setting [2], the AC50 was 0.0731 µM [falling, full curve, poor fit].
Consider `CC(C)(C)c1ccc2c(c1)OC(C(=O)N/N=C\c1ccc[nH]1)CO2` (centres undefined), for which the cell number change was -2.31%. In addition, the AC50 under setting [2] was 0.103 µM [rising, single point].
As to `CC(=O)c1ccc(OCc2cc(C(=O)NC(C)Cc3ccccn3)no2)cc1` (centres undefined), the cell number change is -12.5%.
For `CC(O)c1nc2ccccc2n1CCCOc1ccccc1` (centres undefined), the cell number change came out at 16.8%. In addition, the AC50 under setting [2] is 3.66 µM [rising, full curve].
As to `CCOc1cc(/C=N\NC(=O)Cn2nnc3ccccc32)ccc1O`, the half-maximal activity concentration (AC50) under setting [2] was 0.116 µM [rising, single point].
In the case of `CC(CCc1ccccc1)NC(=O)/C=C/c1ccc(Cl)cc1` (centres undefined), the cell number change turned out to be 5.63%. Moreover, the half-maximal activity concentration (AC50) under setting [2] was 9.2 µM [rising, partial curve, poor fit].
`COc1cccc(-c2noc(C3CCCN(C(=O)c4ccccc4OC)C3)n2)c1` (centres undefined): the cell number change was -21.1%.
Turning to `Cc1cc(/C=N/NC(=O)c2cccc(N(C)C)c2)c(C)n1-c1cc(C(=O)O)cc(C(=O)O)c1`, the cell number change was -0.553%. Under setting [2], the AC50 was 6.51 µM [falling, single point].
Take `COc1cccc(NC(=O)NC2(C(=O)N3CCN(C)CC3)CCCCC2)c1`: the cell number change worked out at 1.26%.
Turning to `COc1ccc(O)c(-c2c(-c3ccc(Cl)cc3)n[nH]c2C)c1`, the AC50 runs as follows: under setting [1], 0.103 µM [rising, full curve, poor fit]; under setting [2], 2.91 µM [rising, partial curve].
In the case of `O=C(Nc1cccc(O)c1)c1cccc(S(=O)(=O)N2CCCCCC2)c1`, the cell number change was -2.42%.
Take `O=S(=O)(Nc1ccc2c(c1)OCO2)c1ccc(Cl)cc1F`: the cell number change was found to be 19.8%.
As for `COc1cc(C(=O)NCc2cc3ccccc3n2C)cc(OC)c1OC`, the cell number change is -6.2%.
As for `c1ccc(Cn2c(-c3ccco3)nc3nc4ccccc4nc32)cc1`, the cell number change was -52.9%. The AC50 under setting [1] is 11.6 µM [falling, partial curve]. The AC50 under setting [2] is 14.6 µM [falling, partial curve].
For the molecule `COc1ccc(Cl)cc1C(=O)N1CCN(Cc2ccc3c(c2)OCO3)CC1`, the cell number change came out at 14.4%. The AC50 under setting [1] is 0.00651 µM [rising, full curve, poor fit].
In the case of `Cc1ccccc1N(CC(=O)Nc1ccc(F)cc1)S(C)(=O)=O`, the cell number change turned out to be 30.2%. Also, the AC50 under setting [1] is 0.517 µM [rising, full curve].
Turning to `COC(=O)CCC(=O)Nc1sc(C)c(C)c1C(N)=O`, the cell number change is -37.1%. For the same molecule, under setting [1], the AC50 is 18.4 µM [falling, partial curve, poor fit].
As for `CCOc1cc(C(=O)NCc2ccc(-c3nc4ccccc4o3)cc2)cc(OCC)c1OCC`, the cell number change was -37.2%. Besides, under setting [1], the AC50 is 5.8 µM [falling, full curve, poor fit]. Moreover, the half-maximal activity concentration (AC50) under setting [2] was 3.66 µM [falling, full curve, poor fit].
`CC(=O)OCC1(C)CN(c2ccccc2)N(C(C)=O)C1=O` (centres undefined): the cell number change came to 54.4%. Further, the AC50 under setting [1] is 0.651 µM [rising, full curve, poor fit]. Moreover, under setting [2], the AC50 is 0.231 µM [rising, full curve, poor fit].
Turning to `CCN(CC(=O)Nc1ccc(NC(C)=O)cc1)C(=O)c1ccc(C(=O)c2ccccc2)cc1`, the cell number change came out at 2.06%. Moreover, the AC50 under setting [2] is 18.4 µM [rising, single point].
For the molecule `Cc1cccc(NC(=O)COC(=O)CCc2c[nH]c3ccccc23)c1`, the cell number change is -48.9%. For the same molecule, the AC50 under setting [1] is 29.1 µM [falling, single point].
Consider `COc1ccc(C(C(=O)NC2CCCCC2)N(C(=O)c2sc(C)nc2C)c2ccccc2)cc1` (centres undefined), for which the cell number change was -31.8%. Under setting [1], the AC50 is 32.6 µM [falling, single point]. The AC50 under setting [2] is 6.51 µM [falling, single point].
Turning to `CCCc1cnc(N2CCN(C(=O)c3ccccc3)CC2)nc1`, the AC50 under setting [2] was 7.31 µM [rising, partial curve].
On to `CCCn1c(=O)[nH]c(=O)c2c1nc(-c1ccc(C(F)(F)F)cc1)n2CCOC`, for which the cell number change was 7.14%. In addition, under setting [2], the AC50 was 10.3 µM [rising, partial curve, poor fit].
Regarding `COCCN(C(=O)CSc1cc(C)c2ccccc2n1)c1c(N)n(CC(C)C)c(=O)[nH]c1=O`, the cell number change is -0.775%. Further, the AC50 under setting [2] was 6.51 µM [rising, single point].
Consider `O=C(CSc1nnc(-c2ccc(Cl)s2)o1)N1CCOCC1`, for which the cell number change is -8.82%. Besides, the AC50 under setting [2] was 16.4 µM [rising, single point].
Consider `COC(=O)c1cc(Br)c(=O)n(Cc2ccc(OC)c(OC)c2)c1`, for which the cell number change amounted to 9.55%. In addition, the concentration at half-maximal activity (AC50) under setting [2] is 0.651 µM [rising, partial curve].
With `CCOC(=O)c1cc2c(=O)n3cccc(C)c3nc2n(CC(C)C)c1=NC(=O)c1ccco1`, the cell number change worked out at 4.01%. In addition, the AC50 under setting [1] was 0.517 µM [falling, full curve]. Further, under setting [2], the AC50 was 0.259 µM [falling, partial curve].
`CCC(OCC(O)CN1CCCCC1)c1ccccc1` (centres undefined): the cell number change was determined as 26%.
On to `O=C(Cc1cccc2ccccc12)NNC(=O)Nc1ccc(Cl)cc1`, for which the cell number change was -6.89%.
For `Fc1ccccc1/C=C1\CCCC2=C1Nc1ncnn1C2c1ccccc1F` (centres undefined), the cell number change is -57.5%. Further, the AC50 under setting [1] was 25.9 µM [falling, partial curve, poor fit]. In addition, the AC50 under setting [2] was 32.6 µM [falling, partial curve].
With `CCOC(=O)C1=C(C)N(C)C(=O)NC1c1c(C)nn(-c2ccccc2)c1C` (centres undefined), the cell number change was -6.79%.
`CN1C(=O)CC(N2CCC(c3nc4ccccc4[nH]3)CC2)C1=O` (centres undefined): the cell number change amounted to 5.57%. Also, the AC50 under setting [2] was 3.66 µM [rising, single point].
With `OC(CN1CCOCC1)c1ccc(F)cc1` (centres undefined), the cell number change is -27.1%. For the same molecule, the AC50 under setting [2] is 0.82 µM [falling, full curve, poor fit].
Regarding `Oc1ccccc1-c1cc(-c2ccc(F)cc2)n[nH]1`, the cell number change is -31%. Also, the AC50 under setting [1] was 32.6 µM [falling, single point]. Further, the AC50 under setting [2] is 29.1 µM [falling, single point].
For the molecule `COc1ccc(CCNC(=O)C(C)SCc2ccccc2)cc1` (centres undefined), the cell number change was determined as 6.75%.
As to `Cn1c(N)cc(=O)n(Cc2ccccc2)c1=O`, the cell number change is 3.02%. Moreover, the half-maximal activity concentration (AC50) under setting [2] was 3.26 µM [rising, full curve, poor fit].
Turning to `Cc1cc(CSc2ccccc2)ccc1NC(=O)c1ccc(C)c([N+](=O)[O-])c1`, the cell number change is 4.89%.
As to `Cc1ccc(-c2cc(-c3ccc(F)cc3)n[nH]2)c(O)c1`, the cell number change is -51.6%. Besides, the AC50 under setting [1] was 16.4 µM [falling, partial curve]. Further, under setting [2], the AC50 was 16.4 µM [falling, partial curve].
Turning to `CCOc1cc(N2CCOCC2)c(OCC)cc1NC(=O)Cn1nc(C)c([N+](=O)[O-])c1C`, the cell number change was 1.88%. Moreover, the AC50 under setting [2] is 1.16 µM [rising, partial curve, poor fit].
Regarding `O=C1CCCC2=C1C(c1ccncc1)n1c(nc3ccccc31)N2` (centres undefined), the cell number change came out at 120%. For the same molecule, the AC50 under setting [1] is 25.9 µM [rising, single point].
Take `Cc1cc(C)c(C(=O)CSc2n[nH]c(=O)n2C2CC2)cc1C`: the cell number change stood at 44.4%. Besides, under setting [1], the AC50 is 8.2 µM [rising, partial curve]. Under setting [2], the AC50 is 9.2 µM [rising, partial curve].
Consider `S=C1NC(c2ccccc2)=NCN1c1ccc(Cl)cc1`, for which the cell number change worked out at 22.3%. Moreover, the AC50 under setting [2] was 1.64 µM [rising, partial curve].
For the molecule `COc1ccc(CCNC(=O)COC(=O)Cn2cnc3ccccc32)cc1OC`, the AC50 under setting [2] is 18.4 µM [rising, single point].
For the molecule `CN(C)c1ccc(C(=O)OCC(=O)Nc2ccc(S(N)(=O)=O)cc2)cc1`, the cell number change is -31.8%. In addition, the concentration at half-maximal activity (AC50) under setting [1] is 0.103 µM [falling, full curve, poor fit]. Also, under setting [2], the AC50 is 0.00461 µM [falling, full curve, poor fit].
In the case of `COC(=O)c1ccccc1NC(=O)C1CC(c2ccc(F)cc2)=NO1` (centres undefined), the cell number change was -45.4%.
Consider `CCOc1ccc2nc(-c3ccccc3)nc(SCC(=O)Nc3ncc(C)s3)c2c1`, for which the cell number change turned out to be 81%. For the same molecule, the AC50 under setting [1] is 1.46 µM [rising, full curve]. The AC50 under setting [2] was 0.517 µM [rising, full curve].
Take `CCC(Sc1nnnn1C)C(=O)Nc1ccc(C(C)=O)cc1` (centres undefined): the cell number change was -3.86%. Besides, the AC50 under setting [2] is 5.17 µM [falling, single point].
For `CCC1CCCCN1CCNC(=O)CCS(=O)(=O)c1ccc(Br)cc1` (centres undefined), the cell number change is -19.6%. The AC50 under setting [2] is 2.31 µM [falling, full curve].
For the molecule `Fc1ccccc1N1CCN(C(c2ccncc2)c2nnnn2C2CCCC2)CC1` (centres undefined), the cell number change is -12.2%.
`CCCCN(C)Cc1c(C)[nH]c2ccc(Cl)cc2c1=O`: the AC50 under setting [2] is 1.46 µM [falling, partial curve].
With `CCOC(=O)c1sc2nc(C3CC3)cc(-c3ccc(F)cc3)c2c1N`, the cell number change was -22.1%.

The term AC50 denotes the concentration at which the activity in the assay is half-maximal. Higher therefore signals activity only at high concentration.
